{
  "source": "paper doi:10.1101/2022.09.07.506877",
  "key": {"[1]": {"target": "type III-E CRISPR-Cas effector gRAMP from Candidatus \"Scalindua brodae\" (Candidatus \"Scalindua brodae\")", "assay": "cryo-EM structure"}, "[2]": {"target": "type III-E CRISPR-Cas effector gRAMP from Candidatus \"Scalindua brodae\" (Candidatus \"Scalindua brodae\")", "assay": "cryo-EM structure", "remark": "listed apart in the source"}},
  "note": "Read-outs that look alike come from different tables or passages of the source. These are yes or no findings as the source states them, for the method shown. Binding seen in cells or lysates may run through a third protein. A result given as binding can be weak or reduced; the word gives no strength.",
  "data": [
    {"substance": "caspase-like peptidase TPR-CHAT (from UniProt A0A0B0EKL4)", "values": [
      {"measurement": "binding", "setting": "[1]", "result": "binds"},
      {"measurement": "binding", "setting": "[2]", "result": "binds"}
    ]}
  ]
}
